The full ranking holds about 33,000 sequences; the median of “E-score (-0.5 to 0.5)” is about -0.0034, and the highest 2% start at about 0.25. This is one part of the list.
The sequences below were run against T1, Yap3 (UniProt P38749) (assay: PBM E-score (8-mer binding enrichment) (E-score (-0.5 to 0.5)); higher = stronger / more preferred TF binding). Settings: protein concentration: 100 nM; construct: GST-full length.
T1 sequence: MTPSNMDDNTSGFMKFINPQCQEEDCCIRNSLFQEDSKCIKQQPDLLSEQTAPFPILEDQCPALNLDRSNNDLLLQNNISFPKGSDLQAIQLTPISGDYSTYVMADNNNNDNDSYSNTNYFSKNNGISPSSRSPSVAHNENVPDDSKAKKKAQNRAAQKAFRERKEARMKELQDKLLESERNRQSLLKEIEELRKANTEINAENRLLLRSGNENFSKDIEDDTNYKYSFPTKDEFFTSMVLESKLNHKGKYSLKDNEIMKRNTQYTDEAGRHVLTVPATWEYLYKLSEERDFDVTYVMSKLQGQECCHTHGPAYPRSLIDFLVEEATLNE
Method in brief: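 The E-score, a modified Wilcoxon-Mann-Whitney statistic, was computed by the Universal PBM Analysis Suite for every ungapped eight-base word pooled with its reverse complement. Scans behind it were normalised with masliner after bound GST-tagged yeast transcription factors were detected with fluorescent anti-GST. The proteins, at about 100-200 nM, had been applied to universal all-10-mer Agilent arrays made double-stranded by primer extension.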

Sequence	PBM E-score
ACCGAAAT	0.0947
AAAGGTAT	0.0985
AGCAGTCG	-0.15
ACGTCCAC	-0.0493
AGCCCTTC	-0.275
CAGCTGCA	-0.168
CAAGTCTC	-0.245
GCTGCGCC	-0.152
CAACTAAG	0.0225
ACGGTAAA	0.206
ACTCCAAG	-0.109
TAAAGTGA	0.263
AAGATAAT	0.207
GCGGTCAA	-0.00885
CCGCGGTC	-0.222
CATATTTA	0.185
GCCCTAGC	-0.087
AGTGGGGC	-0.288
GAAGTGCA	-0.02
TCACGTCA	0.147
TTTGCAAA	0.174
GTCTAGCA	0.0493
CCCTCGAG	-0.121
CATCTCGC	0.0155
AGCTAGTC	0.0172

Sequence	PBM E-score
AACTGTCA	0.179
ACCTGCAG	-0.17
AGTTGCGA	0.199
AGAGCGAC	-0.0543
AGATGACG	0.108
AAAAACGC	0.147
AAGACGTC	-0.0582
CCTATGAG	-0.11
GAGTTGCC	0.0726
ACAATGCG	0.114
ACAGTGTA	0.0731
ACCCTTGA	-0.0607
CGCTATAA	0.0733
TCGGGTCA	0.0231
AGCCAGTG	-0.215
ATCCGCCG	0.032
AGTTGTTA	0.114
AAGCGTGT	-0.124
ACAATGTC	0.141
AAAAGTGG	0.195
CCCTGCGG	-0.346
AACACTCT	0.0132
ACTATGCC	-0.0279
ATTACTCA	0.299
CCAAATGC	0.0716

Sequence	PBM E-score
AGTACTAT	0.0279
CAGTCAAA	-0.0396
ACAGGCAC	-0.0534
ATAGAGAA	0.197
CCCGATGA	0.0319
TATGGCGA	-0.0502
AGATAAGA	0.24
CTTACAGA	-0.195
AGCGCAGC	-0.217
CAATGCAG	-0.0332
CGTGACTA	0.0867
AATACCGA	0.0401
ACTCTGAA	0.00928
CTAATCGA	0.125
AATACATT	0.206
CGAGACGC	0.0668
AGGAGCAT	0.0355
AGTTAACC	0.0307
TCTTAACA	0.164
AAACGCTT	0.0404
CACTTGAA	0.239
CGCATAGA	0.125
GAATCACA	0.0551
AGCTTGAC	-0.0896
CCCCCTTA	-0.173

Sequence	PBM E-score
AATCTACA	0.0627
AGTGACAC	-0.0141
CCCTACTC	0.0112
CTTACATA	0.248
CAATCGTC	0.138
CCGTCACA	-0.164
TACTTTCA	0.177
ACGAAGGG	-0.188
GGCGTTAC	-0.244
ACCTTAGG	-0.123
ACGTAGGC	-0.182
AGATACCG	0.0481
CTTGGCTC	-0.192
AGCGGAGG	-0.283
AACCTATC	0.0574
AAAGCTCT	-0.168
GTGTTGAA	-0.00697
AAGGTCCA	-0.105
GACCGATC	-0.0901
ATTGAATG	0.204
CAAGTACG	-0.181
AGTCCTCA	0.0148
ATCCTGCA	0.113
CGCAGACG	-0.0471
AGAAGCCC	-0.167

4 entries picked at random from the list so far, as already listed:
Sequence	PBM E-score
AAAGCTCT	-0.168
AGTGACAC	-0.0141
ATTGAATG	0.204
GTGTTGAA	-0.00697

Carrying on:

Sequence	PBM E-score
GGGCCCCA	-0.3
CATAGGTC	0.0459
CAGACGAG	-0.126
CGCTTAAC	0.0483
GGGCCACA	-0.133
CCGTCGTC	-0.129
ATTCGCGC	0.0553
CCGTATCG	-0.178
CCGCGCAG	-0.111
GGTCTGAA	-0.0382
AGCCGATA	0.0291
ACAGACGG	-0.11
AAATGGCC	-0.0507
GCTGTGGA	-0.0368
ATGAGGCC	-0.143
ACTTACGG	0.0411
CTTGACTC	-0.161
AGGAGGCA	-0.12
CGGATGTA	0.109
AGGCTTCC	-0.0483
CCCGTGAA	0.0163
TTGGTAAA	0.113
GAATCGCC	-0.277
GTAGAAAA	0.185
TGATCTAA	-0.00748

Sequence	PBM E-score
GTATCACA	0.183
TTACAGAA	0.0743
GGAATCGA	-0.059
AACATCAC	0.121
ATACACAC	-0.00358
GAACAAAC	0.227
AGTCGTGG	-0.0812
ACGGCGGA	-0.161
AGCACGTC	0.112
AGTACCAA	0.281
CCGGGCCC	-0.0537
TGCGTTAA	-0.0586
CAAAGGGA	-0.075
CCATAGAA	0.0478
CAAATTCC	0.148
CACGGTTA	0.122
CAGATGTA	-0.00722
AACATTAT	0.177
AAGCACAG	0.0743
GGTCTTCA	-0.182
CAAGCCGA	0.0414
AAATGTAT	0.222
ACTCCGGG	0.0119
CCCTTCGC	-0.244
TCTAGCCA	-0.0743

At a glance, some entries already given:
Sequence	PBM E-score
TTACAGAA	0.0743
GGAATCGA	-0.059
AACATCAC	0.121
ATACACAC	-0.00358
GAACAAAC	0.227

(listing goes on)

Sequence	PBM E-score
AACAGTCG	-0.0471
AAAGCAAC	0.139
GGGGATAA	0.0811
CACTTCCA	-0.0654
AGCGCCTC	-0.176
AGTCCACA	-0.0934
ACAGTATG	0.118
CGGGTTCA	-0.221
CATATAAC	0.213
ACCCCACT	0.0383
AACAACCG	0.156
AAATATAT	0.285
CAGGACAC	-0.203
TATAATCA	0.265
ATCAACGA	0.0138
TGCTGACA	0.105
CGCAAAAA	0.145
CAAGAATC	0.112
CGCTACTA	0.264
GCCAAGTA	-0.0708
GCAGCCGA	-0.178
GAGTGCCA	-0.203

From the supplement of paper PMC3334620
